Screen size: about 140,000 compounds; about 4,300 (3.1%) were called active. This list was built around the results that the source calls inconclusive (neither active nor inactive); the mix of calls is not that of the screen.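 Rule for the calls: active = readout at or below -70, meaning at least 70% loss of cells showing the perinucleolar compartment, a nuclear body marking cancer cells; inconclusive = readout between -30 and a set limit; inactive = the rest.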
Assay: High Content Assay for Compounds that inhibit the Assembly of the Perinucleolar Compartment;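 note: plate controls were DMSO wells for no effect and camptothecin positive control wells for full effect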
Details: PC3M PTB-GFP, PNC prevalence imaging, 16 h; at 10 µM; hits give low values
Method in brief: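 PC3M cells stably expressing PTB-GFP, 750–1000 cells/well, treated 16 h at 37 °C with compound (23 nl of library stock), in duplicate. After paraformaldehyde fixation and Hoechst stain, imaged at 20x; PNC prevalence scored by image analysis.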

Compound | activity change (PNC), negative = inhibition
CSc1ccccc1NC(=O)Nc1ccc(Cl)cc1 | inconclusive: -51.1%
Cc1ccc(C=Nc2ccccc2C(N)=O)o1 | active: -92.8%
O=C(N1CCOCC1)C1(c2ccc(Cl)cc2)CCCC1 | inconclusive: -71%
CCn1c(C)nc2cc(C(=O)N=Nc3c(O)[nH]c4c(C)cc(C)cc34)ccc21 | inactive: 51.4%
Cc1nc2ccccn2c1/C(O)=C1\C(=O)C(=O)N(CCN(C)C)C1c1cccnc1 (stereo not given) | inactive: 9.04%
COc1ccc2nc(NC(=O)CSc3nnc(-c4ccoc4C)n3C)sc2c1 | inconclusive: -35.6%
CCN(CC)C(=O)C1CCCN(c2ncnc3c2cnn3-c2cccc(C)c2)C1 (stereo not given) | inconclusive: -37.9%
COc1cccc(-c2cc(C(=O)NCCN3CCOCC3)no2)c1 | inactive: 17.7%
O=C(NC1CCCCC1)C(c1ccco1)N(CCc1ccccc1)C(=O)C(F)(F)F (stereo not given) | inactive: 26.7%
O=C(CNC(=O)c1cccs1)OCC(=O)c1ccccc1 | inactive: 38.6%
O=C(c1ccco1)N1CCN(c2ncccn2)CC1 | inactive: -21.2%
COc1cc(/C=N/NC(=O)c2ccc(=O)[nH]n2)ccc1O | inconclusive: -67.2%
COc1ccc(N(CC(=O)N/N=C/c2ccc(-c3ccc([N+](=O)[O-])cc3)o2)S(=O)(=O)c2ccc(C)cc2)cc1 | inconclusive: -48%
c1ccc(OCc2nn3c(Cn4cnc5ccccc54)nnc3s2)cc1 | inconclusive: -60.3%
O=C(NNC1=C(C(=O)C(F)(F)F)CCC1)c1ccc(Br)cc1 | inconclusive: -49.4%
O=C(Nc1c(C(=O)c2ccccc2)oc2ccccc12)c1cc(-c2ccccc2O)n[nH]1 | inconclusive: -41.2%
O=C(Nc1ccccc1)C1=C(O)CC(c2ccc(Cl)cc2)N2CCN=C12 (stereo not given) | inconclusive: -40.8%
COC(=O)COc1ccc(-c2nn(C)c(=O)c3ccccc23)cc1 | inconclusive: -54.4%
Cc1ccc(S(=O)(=O)N2c3ccccc3OCC2C(C)(C)C)cc1 (stereo not given) | active: -100%
Cc1cccc(NC(=O)Cn2nnc(-c3cccs3)n2)c1C | inconclusive: -41%
COc1cccc(/C=C/C(=O)c2ccc(NS(=O)(=O)c3ccc(C)cc3)cc2)c1 | inconclusive: -30.7%
COc1cccc(C(=O)NCc2cccnc2)c1 | inconclusive: -69.4%
Cc1ccsc1C(=O)NNC(=O)C1C2C=CC(C2)C1C(=O)O (stereo not given) | inconclusive: -59.1%

2 of the compounds above, with each value named:
O=C(NNC1=C(C(=O)C(F)(F)F)CCC1)c1ccc(Br)cc1
  activity change (PNC), negative = inhibition: inconclusive: -49.4%
Cc1ccsc1C(=O)NNC(=O)C1C2C=CC(C2)C1C(=O)O (stereo not given)
  activity change (PNC), negative = inhibition: inconclusive: -59.1%

(cont.)

Compound | activity change (PNC), negative = inhibition
O=C1C(Cl)=C(N2CCN(Cc3ccccc3)CC2)C(=O)N1Cc1ccccc1 | inconclusive: -64.2%
O=C(CSCc1ccccc1)N1CCN(C(=O)c2ccco2)CC1 | active: -100%
COc1ccc([N+](=O)[O-])cc1NC(=O)C(C)c1ccccc1 (stereo not given) | inactive: -22.1%
CN1/C(=C\C(=O)c2cccc(S(=O)(=O)N3CCCCC3)c2)C(C)(C)c2ccccc21 | active: -88%
CCN(CC)c1ccc(NC(=O)COc2ccc(C)cc2)cc1 | inconclusive: -33.9%
Cc1ccc(CCNC(=O)C2CCC(CNc3c(N4CCCC4)c(=O)c3=O)CC2)cc1 (stereo not given) | inactive: -21.4%
COc1ccc(N(CC(=O)Nc2cccc(C)c2C)S(=O)(=O)c2c(C)n[nH]c2C)cc1 | inconclusive: -31.4%
CC1=C(C(=O)OCc2ccc3c(c2)OCO3)C(c2ccc(Cl)cc2)NC(=O)N1 (stereo not given) | inactive: -16.3%
CC(OC(=O)C1CCCCC1)c1nc2ccccc2[nH]1 (stereo not given) | inconclusive: -53.7%
O=C(CSc1nnc(NC(=O)C2CC2)s1)NCc1ccco1 | inactive: -7.91%
Cc1cc(Nc2cccc(C(F)(F)F)c2)n2nc(C)nc2n1 | inconclusive: -47.4%
O=C(CC(Nc1ccccc1)c1ccc(F)cc1)c1ccccc1 (stereo not given) | inactive: 32.6%
O=C(COC(=O)Cn1[nH]c(=O)c2ccccc2c1=O)Nc1ccc2c(c1)OCO2 | inconclusive: -50%
O=C(Nc1nc(-c2ccncc2)cs1)c1ccco1 | inconclusive: -52.7%
COC(=O)c1ccc(C)c(NS(=O)(=O)c2ccc(OC)cc2)c1 | active: -93.8%
O=C1/C(=C\c2ccco2)SC(=S)N1c1ccc(O)cc1 | inactive: 39%
CCOC(=O)Cn1nc(C)n(-c2ccc(C(C)(C)C)cc2)c1=O | inactive: 58.6%
COC(=O)c1cccc(NC(=O)C2COc3ccccc3O2)c1C (stereo not given) | inconclusive: -45.7%
COc1cccc(CNc2nc3nc4c(c(=O)n3[nH]2)CCC4)c1 | inconclusive: -56.2%
Cc1ccccc1OCC(O)Cn1c(SC(C)C)nc2c1c(=O)[nH]c(=O)n2C (stereo not given) | inconclusive: -35.7%
COc1ccc(OC)c(-c2oc3ccccc3c(=O)c2O)c1 | inconclusive: -43.4%
COc1ccc(/C=N/NC(=O)CN(CCc2ccccc2)S(=O)(=O)c2ccc(NC(C)=O)cc2)cc1OC | inconclusive: -46.5%
COc1cccc(CNC(=O)CCl)c1 | inconclusive: -33.8%

Compound | activity change (PNC), negative = inhibition
O=C(CSC(=S)N1CCCCC1)N1N=CCC1c1ccccc1 (stereo not given) | inconclusive: -46.6%
CC(=O)C1=C(C)NC(SCC(=O)c2ccc(Cl)cc2)=C(C#N)C1c1ccco1 (stereo not given) | inactive: 28.5%
O=[N+]([O-])c1cccc2ccc(/C=C/c3ccc(Cl)cc3)nc12 | inconclusive: -32.6%
CC(C)C(=O)NNc1nc2ccccc2s1 | inactive: -19.1%
Cc1cc(C)c2nc3s/c(=C/c4ccc5c(c4)n(C)c(=O)n5C)c(=O)n3c2c1 | inactive: 3.71%
CCCOC(=O)c1ccc(NC(=O)Oc2ccccc2)cc1 | inactive: -27.7%
CCOC(=O)C1CCCN(C(=O)CC(c2ccccc2)c2ccccc2)C1 (stereo not given) | active: -100%
COc1ccc(-n2c(Cn3nc(C(F)(F)F)cc3C)n[nH]c2=S)cc1 | inactive: 4%
Cn1c2ccccc2c2cc(C(=O)NNS(=O)(=O)c3ccc(F)cc3)sc21 | active: -87.8%
O=C(Cc1cccc(C(F)(F)F)c1)NCc1cccc(Cl)c1 | inconclusive: -32.6%
C=CCN(CC=C)S(=O)(=O)c1ccc(NC(=S)NC(=O)c2ccco2)cc1 | inactive: -17.9%
CC(C)CN1CCC(C(=O)NCC2CCCO2)CC1 (stereo not given) | inconclusive: -49.2%
Cc1cc(S(=O)(=O)N(Cc2ccc(C(C)(C)C)cc2)Cc2cccs2)ccc1-n1cnnn1 | inactive: 87.8%
Cc1ccc(S(=O)(=O)N(C(=O)c2ccncc2)c2ccc(OC(=O)c3ccncc3)cc2)cc1 | inconclusive: -49.8%
COc1ccc(-c2ccnc3nc(-n4cccc4)nn23)cc1 | inconclusive: -50.5%
Cc1nn(Cc2nc(-c3cccs3)no2)c(C)c1Br | inconclusive: -33.5%
O=C(c1cnc2sccn2c1=O)N(Cc1ccccc1)c1ccccn1 | inconclusive: -59.7%
COc1ccc(C)cc1-n1nnnc1SCC1CCCO1 (stereo not given) | inactive: 49%
CCn1nnnc1SCC(=O)NCc1ccc2c(c1)OCO2 | inactive: 2.74%
CSc1cccc(NC(=O)c2c(Cl)cnn2C)c1 | inactive: 4.67%
COC(=O)c1cccnc1-n1c(=O)c2cccnc2n(Cc2cccc(OC)c2)c1=O | inconclusive: -40.3%
Cc1ccc(C)c(N2CCN(C(=O)Cc3ccc(-n4c(=O)[nH]c5ccsc5c4=O)cc3)CC2)c1 | inconclusive: -51.6%
O=C(NCCCCNC(=O)c1ccc(Br)s1)c1ccc(Br)s1 | inconclusive: -62.7%

Compound | activity change (PNC), negative = inhibition
N#CCCn1nc(-c2ccccc2)cc1-n1c(C(F)(F)F)nc2ccccc21 | inconclusive: -46.4%
CCOC(=O)CNC(=O)Cn1cnc2ccc(S(=O)(=O)N3CCC(C)CC3)cc2c1=O | inconclusive: -36.7%
CSC1=NCCN1C(=O)c1ccc(S(=O)(=O)N(C)C)cc1 | inactive: 15.8%
N#Cc1nc(COc2ccc(Cl)cc2)oc1N1CCN(Cc2ccccc2)CC1 | inactive: -14.8%
O=C(Nc1ccc2ccccc2c1)c1cccnc1 | inactive: -11%
COc1ccc(Nc2nc(-c3cccc([N+](=O)[O-])c3)nc3ccccc23)c(OC)c1 | inactive: -16.8%
Cc1cccc(OCC(=O)Nc2nc3ccc([N+](=O)[O-])cc3s2)c1C | inconclusive: -45.2%
COC(=O)c1c(C)cc(C)n2c1nc1ccccc12 | inactive: 2.91%
COc1ccc(OC)c(C(c2nnnn2CCC(C)C)N2CCN(C(=O)c3ccco3)CC2)c1 (stereo not given) | inactive: 7.86%
CCOC(=O)c1cc(CC)sc1NC(=O)Cc1ccsc1 | inconclusive: -30.8%
CCOC(=O)c1c2n(c3ccc(OC(C)=O)cc13)CCC2 | inconclusive: -68.7%
N#CCC(N)=C(C#N)C#N | inactive: 47.9%
O=C1C(Nc2ccccc2)=C(NS(=O)(=O)c2ccccc2)C(=O)c2ccccc21 | inconclusive: -71.5%
O=C(CSc1nc2ccc([N+](=O)[O-])cc2[nH]1)c1ccc2ccccc2c1 | inactive: 0.0663%
O=C(CSc1nnc(-c2cccnc2)s1)Nc1ccc(C(=O)O)cc1 | inconclusive: -59.2%
O=C(Cn1cnc2ccccc21)N/N=C/c1ccc([N+](=O)[O-])cc1 | inconclusive: -32.5%
O=C(COC(=O)/C=C/c1ccc(Cl)cc1)NCCc1ccccc1 | inactive: -12.7%
O=C(COC(=O)c1sc2ccccc2c1Cl)Nc1ncc(Cl)cc1Cl | inconclusive: -46.2%
COc1ccc(-c2noc(-c3ccc(C)cc3)n2)cc1 | inconclusive: -45.5%
CCCC(c1nnnn1CCc1ccccc1)N1CCN(C(=O)c2ccco2)CC1 (stereo not given) | inconclusive: -50.9%
CCC(CC)=N/N=C/c1c(O)n(CC)c2cc(C3=NNC(=O)CC3)ccc12 | inconclusive: -44.7%

Structures above that contain a COOH group (2):
Compound | activity change (PNC), negative = inhibition
Cc1ccsc1C(=O)NNC(=O)C1C2C=CC(C2)C1C(=O)O (stereo not given) | inconclusive: -59.1%
O=C(CSc1nnc(-c2cccnc2)s1)Nc1ccc(C(=O)O)cc1 | inconclusive: -59.2%

Source: PubChem BioAssay AID2417 (National Center for Advancing Translational Sciences (NCATS), 2010)
